Source: paper PMC7819943, “Rice protein-binding microarrays: a tool to detect cis-acting elements near promoter regions in rice”
Some of the results follow.

Protein sequences, listed by entry. Tags and fused reporters are not part of them.
UniProt Q0JBA9, entry or part of it: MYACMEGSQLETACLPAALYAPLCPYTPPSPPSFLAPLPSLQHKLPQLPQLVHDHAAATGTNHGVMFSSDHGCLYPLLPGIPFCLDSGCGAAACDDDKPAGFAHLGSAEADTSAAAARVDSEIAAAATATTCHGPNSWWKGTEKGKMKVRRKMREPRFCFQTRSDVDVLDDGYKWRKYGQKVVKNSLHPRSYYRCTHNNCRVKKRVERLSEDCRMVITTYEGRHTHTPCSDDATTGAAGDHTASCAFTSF

These sequences were tested against OsWRKY34 (Oryza sativa, UniProt Q0JBA9 1-250) (assay: protein-binding microarray (RPBM); PBS, 2% BSA, 51.3 ng/ul salmon testes DNA, 50 uM zinc acetate, 200 nM TF, 25 C, 1 h; high values mean tight binding). Conditions: protein: recombinant; tags: N-terminal polyhistidine and DsRed monomer fusion (pET32a); label: CyDye5-dUTP incorporated in the synthesized complementary strand; 3' TTTTT single-stranded linker to array surface; dsDNA, one strand shown.
Procedure, shortened: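 Per-feature fluorescence intensity (arbitrary units), read on an Axon 4000B scanner, is the binding signal. Transcription factors carrying an N-terminal polyhistidine tag and DsRed fusion were expressed in E. coli BL21-CodonPlus and purified on Ni–NTA. A custom Agilent array, made double-stranded by primer extension with Cy5-dUTP and blocked with 2% BSA, was incubated with 200 nM protein in PBS, 2% BSA, salmon testes DNA and 50 µM zinc acetate at 25 °C for 1 h and then washed.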
In the case of “GCCTTTATATATACCCTTCGTCTCGGAACGTCGTCTTCTACGGAGTCACCTAGTGCAG”, the binding signal is reported as 9660 fluorescence intensity (a.u.).
For “CTTCTCCTCTGCTCGCCCCGCCGCCGCCGCCGTCTCCGCGCGGAGTCACCTAGTGCAG”, the binding signal was 8940 fluorescence intensity (a.u.).
With “ACATCAAAATTTTCATACACACAACTTTTCTATCATATTACGGAGTCACCTAGTGCAG” the binding signal was 10000 fluorescence intensity (a.u.).
With “AGCCTTTCTTTATAGTGGCCATTGCCTTACTTGTTGCACTCGGAGTCACCTAGTGCAG” the binding signal was 9440 fluorescence intensity (a.u.).
“TCATACACAACTTTTCAGTCACATCATCTCCAATTTCAACCGGAGTCACCTAGTGCAG” was tested, and the binding signal was 8620 fluorescence intensity (a.u.).
In the case of “TGATTGTTCAGGCTAAATTTGCTACTCCGTCCGATTCATACGGAGTCACCTAGTGCAG”, the binding signal is reported as 8840 fluorescence intensity (a.u.).
In the case of “GCCACCACATTTAGCGCCCGCCGCCACCGCTGCCGCCGCCCGGAGTCACCTAGTGCAG”, the binding signal is reported as 8360 fluorescence intensity (a.u.).
In the case of “GTACACTCCTCGATCGCCTCGATTCTCTCTTCCGATTCGACGGAGTCACCTAGTGCAG”, the binding signal is reported as 8630 fluorescence intensity (a.u.).
“ATCGTTTTCTGTCCGCTTTGATTGTTATTGACCTAGCCACCGGAGTCACCTAGTGCAG” was tested, and the binding signal was 10500 fluorescence intensity (a.u.).
“TCATAATCTCATTCATGTACCAACCACACATCTCCATCATCGGAGTCACCTAGTGCAG” was tested, and the binding signal was 9270 fluorescence intensity (a.u.).
“CCTTTACAGGTCAGTATTTTCACAAACAGTTACAGAATCACGGAGTCACCTAGTGCAG” was tested, and the binding signal was 9080 fluorescence intensity (a.u.).
For “GTGGAGGTGTTAAGGATAGTATGTCTAGAGGTATTTTAGACGGAGTCACCTAGTGCAG”, the binding signal was 8350 fluorescence intensity (a.u.).
In the case of “GCCTTTTGGCTAAGATCAAGTGTAGTATCTGTTCTTATCACGGAGTCACCTAGTGCAG”, the binding signal is reported as 8650 fluorescence intensity (a.u.).
“GTTAGGTAGTGTTTGGTTGGAGGGATATCCCGGGATGGGACGGAGTCACCTAGTGCAG” was tested, and the binding signal was 9000 fluorescence intensity (a.u.).
For “ACGGGGCTTTTAACTATTTGTCACTCTTATGAATGGTGTTCGGAGTCACCTAGTGCAG”, the binding signal was 10200 fluorescence intensity (a.u.).
With “CGTCTGTTGACACCGCCGCCACCACCGCCGCCGCCGTCCCCGGAGTCACCTAGTGCAG” the binding signal was 8720 fluorescence intensity (a.u.).
With “TACATTCATCTCGCCTTTTCTCATCTGCTTTGGCCTACCGCGGAGTCACCTAGTGCAG” the binding signal was 8230 fluorescence intensity (a.u.).
In the case of “GCATATTTATGAAGTCATAGCTTCATTACAGCCAGCTTGTCGGAGTCACCTAGTGCAG”, the binding signal is reported as 8360 fluorescence intensity (a.u.).
In the case of “GGTCTGCAGTTGGCTATCCATTTCTTTCATGTGAAGACAGCGGAGTCACCTAGTGCAG”, the binding signal is reported as 8400 fluorescence intensity (a.u.).
For “CTCCCTCCTTTTCTAAATGTTTGACACCATTGACTTTTTTCGGAGTCACCTAGTGCAG”, the binding signal was 8470 fluorescence intensity (a.u.).
For “CTGACACGTAGGCCCCACTGTCATTGACCGTTACAACTCACGGAGTCACCTAGTGCAG”, the binding signal was 8110 fluorescence intensity (a.u.).
For “CTTCCTCTCTTCTCTTTCTCTCTTCTTCCCCATCCCGTTACGGAGTCACCTAGTGCAG”, the binding signal was 8170 fluorescence intensity (a.u.).
“GGTAAAACATGTTGGATTTTATTTTGGTGGGATGTGCAATCGGAGTCACCTAGTGCAG” was tested, and the binding signal was 9620 fluorescence intensity (a.u.).
